From PubChem BioAssay AID445 (National Center for Advancing Translational Sciences (NCATS), 2006)
Some of the results follow. Shown are side measurements of this screen, not its main read-out; they come without a call. The list favours compounds with an active or inconclusive main result. Words in brackets tell the shape of the fitted curve; partial curves, single points and poor fits give uncertain potencies.

Assay: IkB Signaling
Details: ABC-DLBCL IkBa-CBG/CBR dual luciferase ratio (green luciferase fused to IkBa over red control in OCI-Ly3 lymphoma cells), 4 h
Method in brief: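 Curves were fitted separately to fusion (green), unfused (red) and ratio luminescence, then classed by r2, magnitude and activity. Cells: OCI-Ly3, 4 h compound plus doxycycline at 37C; 10 uM MG-132 defined full response.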

[1] = measured here: control luc red channel unless noted
[2] = measured here: IkB-luc green channel
[3] = measured here: control luc red channel

With Cc1cc(C(=O)COC(=O)C2=COCCO2)c(C)n1-c1ccc2c(c1)OCO2 the AC50 [1] was 31.6 µM [falling, single point].
For CCOC(=O)C1CCN(C(=O)CN2c3ccc(CC)cc3-c3ccccc3S2(=O)=O)CC1, the AC50 [1] was 25.1 µM [falling, single point].
For CCOC(=O)C1CCN(C(=O)C2CCN(S(=O)(=O)c3cc(Cl)ccc3Cl)CC2)CC1, the AC50 [1] was 12.6 µM [falling, partial curve].
In the case of CCS(=O)(=O)c1ncc(N(Cc2ccc(F)cc2)Cc2ccco2)c(C(=O)Nc2cc(C)ccc2C)n1, the AC50 [1] is reported as 10 µM [falling, partial curve, poor fit].
For CCCn1c(NCc2ccc(N(CC)CC)cc2)nc2ccccc21, the AC50 [1] was 31.6 µM [falling, single point].
With OC[C@@H]1O[C@@H](n2cnc3c(NCCc4ccccc4)ncnc32)[C@@H](O)[C@H]1O the AC50 [2] was 2.51 µM [rising, full curve] and the AC50 [3] was 0.316 µM [rising, full curve].
With CC(=O)OCC(=O)[C@@]1(O)CC[C@@H]2[C@H]3CCC4=CC(=O)C=C[C@]4(C)[C@]3(F)[C@@H](O)C[C@@]21C the AC50 [1] was 3.98 nM [rising, full curve] [measured here: IkB-luc green channel].
With CC(=O)N1c2c(cc(Br)cc2S(=O)(=O)N2CCN(c3cccc(Cl)c3)CC2)CC1C (configuration not stated) the AC50 [1] was 7.94 µM [falling, partial curve].
In the case of COc1cccc(N2CCN(C(=O)c3cnn(-c4ccc(C)cc4C)c3C3CCN(C(=O)OC(C)(C)C)CC3)CC2)c1, the AC50 [1] is reported as 20 µM [falling, partial curve].
In the case of Cc1ccc(C)c(N2CCN(C3=C(c4ccccc4)C(=O)c4ccccc43)CC2)c1, the AC50 [1] is reported as 39.8 µM [falling, partial curve, poor fit].
For CCN(Cc1ccccc1)C(=O)c1cc2c(s1)-c1c(C)cccc1OC2, the AC50 [1] was 39.8 µM [falling, single point].
In the case of COc1ccc(/C=N/n2cc(-c3ccccc3)nc2N)cc1, the AC50 [1] is reported as 10 µM [falling, partial curve].
For CCN1CCN(c2c(S(=O)(=O)c3ccc(C)c(C)c3)cnc3ccc(F)cc23)CC1, the AC50 [1] was 25.1 µM [falling, single point].
For Cc1nn(CC(=O)Nc2ccccc2F)c(=O)c2c(C)n(-c3ccc(Cl)cc3)nc12, the AC50 [1] was 39.8 µM [falling, partial curve, poor fit].
With COc1ccc(NC(=O)CSc2cc(-c3ccccc3)nc(C)n2)cc1 the AC50 [1] was 39.8 µM [falling, single point].
In the case of COc1cccc(-n2nnnc2SCC(=O)Nc2cccc(C)n2)c1, the AC50 [1] is reported as 7.94 µM [falling, partial curve].
In the case of COc1ccccc1N1CCN(C(c2ccc(Cl)cc2)c2nnnn2C(C)(C)C)CC1 (configuration not stated), the AC50 [1] is reported as 39.8 µM [falling, single point].
With COc1ccc(C2C(C(=O)Nc3ccc(F)cc3)=C(C)Nc3nc(CCCO)nn32)cc1 (configuration not stated) the AC50 [1] was 15.8 µM [falling, partial curve].
With O=C(Nc1c2c(nn1-c1ccc(Cl)cc1)CS(=O)(=O)C2)c1cccc(F)c1 the AC50 [1] was 39.8 µM [falling, single point].
With COC(=O)c1ccc(C2c3c(-c4ccccc4O)n[nH]c3C(=O)N2Cc2ccncc2)cc1 (configuration not stated) the AC50 [1] was 20 µM [falling, partial curve].
With CC1CN(S(=O)(=O)c2ccc(NC(=O)c3cc(-c4ccccc4O)n[nH]3)cc2)CC(C)O1 (configuration not stated) the AC50 [1] was 3.16 µM [falling, full curve].
For CC(C)c1nn2c(=O)cc(COC(=O)c3ccccc3NC(=O)COc3ccccc3)nc2s1, the AC50 [1] was 20 µM [falling, partial curve].
In the case of CCOc1ccccc1NC(=O)c1c(NCc2cccs2)sc2c1CCC(C)C2 (configuration not stated), the AC50 [1] is reported as 0.316 µM [rising, partial curve].
With Cc1cccc(OCc2ccc(-c3nc(C#N)c(NCc4cccnc4)o3)o2)c1 the AC50 [1] was 31.6 µM [falling, single point].
For COc1ccc(-c2cc(C)no2)cc1S(=O)(=O)NCc1cccs1, the AC50 [1] was 20 µM [rising, single point].
In the case of CCOC(=O)c1c(S(=O)(=O)N2CCCC(C(=O)Nc3ccccn3)C2)c(C)n(C)c1C (configuration not stated), the AC50 [1] is reported as 39.8 µM [falling, single point].
For COc1ccc(CN2CCc3c(c(=O)n4ncc(C(=O)N5CCN(c6ccc(F)cc6)CC5)c4n3C)C2)cc1, the AC50 [1] was 10 µM [falling, partial curve].
In the case of CCCOc1cccc(C2c3c(oc4ccccc4c3=O)C(=O)N2c2nncs2)c1 (configuration not stated), the AC50 [1] is reported as 20 µM [falling, single point].
With COc1cccc(C(=O)c2cn(CC(=O)NCc3ccccc3Cl)c3nc(C)ccc3c2=O)c1 the AC50 [1] was 39.8 µM [rising, single point] [measured here: IkB-luc green channel].
In the case of O=C(Nc1cccc(O)c1)c1noc2c1CCc1ccccc1-2, the AC50 [2] is reported as 31.6 µM [rising, single point] and the AC50 [3] is reported as 10 µM [falling, partial curve, poor fit].
In the case of Cc1ccc(C)c(Cn2c(CCCNC(=O)C3CCCCC3)nc3ccccc32)c1, the AC50 [1] is reported as 15.8 µM [falling, partial curve].
For Cc1c(Cl)cccc1NC(=O)Cn1cc(C(=O)c2cccs2)c2ccccc21, the AC50 [1] was 3.16 µM [falling, full curve].
With CCOC(=O)c1[nH]c(C)c(C(=O)NC(CC)Cc2ccccc2)c1C (configuration not stated) the AC50 [1] was 25.1 µM [falling, single point].
In the case of Cc1ccc(-c2nnn3c2nc(NCC(C)c2ccccc2)c2ccccc23)cc1 (configuration not stated), the AC50 [1] is reported as 39.8 µM [falling, single point].
In the case of Cc1nnc(NC(=O)c2nc(SCc3ccccc3F)ncc2Cl)s1, the AC50 [1] is reported as 20 µM [falling, partial curve].
For Clc1ccc(OCc2nnc(SCCN3CCCCC3)n2Cc2ccco2)cc1, the AC50 [1] was 5.01 µM [falling, partial curve].
With CCCOc1ccc(C2CC(=O)Nc3c2c(C)nn3-c2nncc(-c3cccc(OC)c3)n2)cc1OC (configuration not stated) the AC50 [1] was 0.02 µM [rising, full curve].
In the case of COc1cccc(C2=CC(c3cc(Br)ccc3F)n3nnnc3N2)c1 (configuration not stated), the AC50 [1] is reported as 39.8 µM [falling, single point].
For Cc1ccc(NC(=O)Nc2sc3nc4n(c(=O)c3c2C)CCC(C)CC4)c(Cl)c1 (configuration not stated), the AC50 [1] was 12.6 µM [falling, partial curve].
With COc1cccc(OC)c1C(=O)Nc1nc2c(s1)CCc1ccccc1-2 the AC50 [1] was 1.26 µM [falling, partial curve].
In the case of Cc1nc(N2CCC3(CC2)OCCO3)c2nnn(Cc3ccccc3F)c2n1, the AC50 [1] is reported as 39.8 µM [falling, single point].
With COC(=O)c1[nH]c2ccc(F)cc2c1NS(=O)(=O)c1ccc(OC)cc1OC the AC50 [1] was 25.1 µM [falling, partial curve].
With Cc1cccc(N2C(=O)CSC23C(=O)N(CC(=O)NCc2ccccc2Cl)c2ccccc23)c1 (configuration not stated) the AC50 [1] was 25.1 µM [falling, partial curve].
With CO[C@@]12C[C@@H](COC(=O)c3cncc(Br)c3)CN(C)[C@H]1Cc1cn(C)c3cccc2c13 the AC50 [1] was 20 µM [falling, partial curve, poor fit].
In the case of COc1ccc(CCNC(=O)C(=O)NCC(c2ccco2)S(=O)(=O)c2ccccc2)cc1 (configuration not stated), the AC50 [1] is reported as 0.01 µM [rising, full curve, poor fit].
For C=CCNc1ncnc2c1ncn2C1OC(CO)C(O)C1O (configuration not stated), the AC50 [1] was 3.16 µM [rising, full curve].
In the case of COc1ccc(-c2nnc3n2N(C(C)=O)C(c2ccc(Cl)c(Cl)c2)=C(C(C)=O)S3)cc1, the AC50 [1] is reported as 20 µM [falling, partial curve, poor fit].
With CCN(C(=O)Cn1cnc2onc(-c3ccc(F)cc3)c2c1=O)c1ccc(OC)cc1 the AC50 [1] was 20 µM [falling, partial curve].
In the case of COc1cc(C(=O)Nc2nc3ccccc3[nH]2)cc(OC)c1OC, the AC50 [1] is reported as 10 µM [falling, partial curve].
For Cc1oc2ncn(CC(C)C)c(=O)c2c1C(=O)NC(C)c1ccccc1 (configuration not stated), the AC50 [1] was 20 µM [falling, single point].
With Cc1cc(C)c2nc(NC(=O)c3ccc(S(=O)(=O)N4CCc5ccccc54)cc3)sc2c1 the AC50 [1] was 6.31 µM [falling, partial curve].
With Cc1ccc(CNc2ncnc3onc(-c4ccc(F)cc4)c23)cc1 the AC50 [1] was 0.501 µM [falling, partial curve, poor fit].
In the case of COc1ccc(C(=O)Nc2ccc3c(c2)CCCN3C(=O)c2cccs2)c(OC)c1, the AC50 [1] is reported as 31.6 µM [falling, single point].
For Cc1cccc(-n2ccnc2SCC(=O)Nc2cccc3ccccc23)c1C, the AC50 [1] was 25.1 µM [falling, single point].
For O=C(Cn1c(=O)n(Cc2ccc3c(c2)OCO3)c(=O)c2oc3ccccc3c21)Nc1ccccc1F, the AC50 [1] was 3.16 µM [rising, partial curve].
For Cc1cccc(-n2c(C)nc3cc(C(=O)NCCC4=CCCCC4)ccc32)c1, the AC50 [1] was 39.8 µM [falling, single point].
In the case of COc1ccc(NC(=O)CCNS(=O)(=O)c2cccc3nsnc23)cc1Cl, the AC50 [1] is reported as 25.1 µM [falling, single point].
In the case of CCn1c(=O)cc(OCC(=O)N2CCN(c3ccc(OC)cc3)CC2)c2ccccc21, the AC50 [1] is reported as 10 µM [falling, partial curve].
In the case of Cc1ccccc1Cc1c(C)nc2c(C(=O)NCc3ccco3)cnn2c1C, the AC50 [1] is reported as 7.94 µM [falling, partial curve].
For COc1ccc(CCNC(=O)c2cc3sccc3n2Cc2ccc(Cl)cc2)cc1OC, the AC50 [1] was 39.8 µM [falling, single point].
